Laboratory results: PubChem BioAssay AID194 (DTP/NCI, 2004)
The list does not hold the whole screen: it gathers tests that were run many times, whatever their T/C, doses with no T/C, and many T/C values between a quarter and a half above the control. Other doses and runs of a compound stand elsewhere. T/C: endpoint of the treated group in % of that of the vehicle group. Schedules are NCI's codes, taken here to give the interval after Q, in days (D) or hours (H), and the number of doses after X. Some entries give survivors of the animals treated and no T/C: the source files T/C as zero there, which appears to mark a toxic dose or a test without result, not a measured value. Some survivor counts are full or nearly so, which does not show that the dose was tolerated: survival well below the control is almost never listed, so the zero probably covers shortened survival too. Counts of survivors are from the toxicity check (mostly the fifth day) where no day follows; animals may have died later. Some doses were run more than once; the results are listed from low to high. For survival time, the PubChem record calls one and a half times the control and up active, and a quarter to a half above the control has no call in these data; cut-offs in other NCI protocols can differ. Additions like (4×) stand for listed records that agree. Some T/C values are followed by the survivors on the day toxicity was checked, most often the fifth; where none is given, no animal had died by that day.

System: BDF1 mice, B16 melanoma s.c., survival/tumor T/C
Test: NCI In Vivo Anticancer Drug Screen. Data for tumor model B16 Melanoma (subcutaneous) in B6D2F1 (BDF1) mice
Protocol: The antitumor activity of compounds was measured in mice bearing transplantable tumors. Survival or tumor size were measured and the results are expressed as the measurement made in the treated group (T) divided by the measurement made in the vehicle treated control group (C). The tumor model used in this assay is B16 Melanoma (subcutaneous) in B6D2F1 (BDF1) mice

[1] = T/C endpoint: median survival time, dose: 100.0 mg/kg/injection, schedule: Q01DX009 (ip), vehicle: saline, higher T/C = longer survival
[2] = T/C endpoint: median survival time, dose: 200.0 mg/kg/injection, schedule: Q01DX009 (ip), vehicle: saline, higher T/C = longer survival
[3] = T/C endpoint: median survival time, dose: 400.0 mg/kg/injection, schedule: Q01DX009 (ip), vehicle: saline, higher T/C = longer survival
[4] = T/C endpoint: median survival time, dose: 50.0 mg/kg/injection, schedule: Q01DX009 (ip), vehicle: saline, higher T/C = longer survival
[5] = T/C endpoint: median survival time, dose: 200.0 mg/kg/injection, schedule: Q01DX009 (ip), vehicle: Klucel (hydroxypropylcellulose) (HPC), higher T/C = longer survival

With `Cc1c(N)nc(C(CC(N)=O)NCC(N)C(N)=O)nc1C(=O)NC(C(=O)NC(C)C(O)C(C)C(=O)NC(C(=O)NCCc1nc(-c2nc(C(=O)NCCCNC(C)c3ccccc3)cs2)cs1)C(C)O)C(OC1OC(CO)C(O)C(O)C1OC1OC(CO)C(O)C(OC(N)=O)C1O)c1cnc[nH]1` (stereo not drawn) the T/C (T/C endpoint: median survival time, dose: 0.5 mg/kg/injection, schedule: Q01DX009 (ip), vehicle: water, higher T/C = longer survival) was 135 % of control [11 of 12 alive], the T/C (T/C endpoint: median survival time, dose: 1.0 mg/kg/injection, schedule: Q01DX009 (ip), vehicle: water, higher T/C = longer survival) was 134 % of control [9 of 10 alive] and the survivor count (T/C endpoint: median survival time, dose: 8.0 mg/kg/injection, schedule: Q01DX009 (ip), vehicle: water, higher T/C = longer survival) was 12 of 12.
For `Nc1n[nH]c(N)n1`, the T/C [1] was 90, 98, 100, 101, 111, 115 % of control, the T/C (T/C endpoint: median survival time, dose: 200.0 mg/kg/injection, schedule: Q01DX009 (ip), vehicle: saline with Tween-80, higher T/C = longer survival) was 138 % of control and the T/C [2] was 90, 106, 108, 109, 114, 115 % of control. The T/C [3] was 96, 110, 114, 118, 127, 173 % of control, the T/C (T/C endpoint: median survival time, dose: 800.0 mg/kg/injection, schedule: Q01DX009 (ip), vehicle: saline, higher T/C = longer survival) was 101, 105 (2×), 114, 119, 123 % of control and the T/C (T/C endpoint: median tumor weight (est.), dose: 200.0 mg/kg/injection, schedule: Q01DX009 (ip), vehicle: saline with Tween-80, evaluated on day 15, higher T/C = larger tumour) was 127 % of control. The T/C (T/C endpoint: median tumor weight (est.), dose: 400.0 mg/kg/injection, schedule: Q01DX009 (ip), vehicle: saline with Tween-80, evaluated on day 15, higher T/C = larger tumour) was 128 % of control.
With `CCN1/C(=C/C=C/C=C/c2sc3ccccc3[n+]2CC)Sc2ccccc21` the survivor count (T/C endpoint: median survival time, dose: 250.0 micrograms/kg/injection, schedule: Q01DX009 (ip), vehicle: saline, higher T/C = longer survival) was 7 of 10 and the survivor count (T/C endpoint: median survival time, dose: 500.0 micrograms/kg/injection, schedule: Q01DX009 (ip), vehicle: saline, higher T/C = longer survival) was 2 of 10.
With `CC1(C)N=C(N)N=C(N)N1c1ccc(OCC(=O)Nc2ccc(S(=O)(=O)F)cc2)c(Cl)c1` the T/C (T/C endpoint: median survival time, dose: 200.0 mg/kg/injection, schedule: Q04DX003 (ip), vehicle: saline, higher T/C = longer survival) was 125 % of control and the survivor count (T/C endpoint: median survival time, dose: 400.0 mg/kg/injection, schedule: Q04DX003 (ip), vehicle: saline, higher T/C = longer survival) was 6 of 6.
In the case of `CC(=O)Oc1ccccc1C(=O)O`, the T/C (T/C endpoint: median survival time, dose: 16.0 mg/kg/injection, schedule: Q01DX009 (ip), vehicle: saline, higher T/C = longer survival) is reported as 125 % of control and the survivor count (T/C endpoint: median survival time, dose: 128.0 mg/kg/injection, schedule: Q01DX009 (ip), vehicle: saline, higher T/C = longer survival) is reported as 10 of 10.
For `CCC1=C(C[C@H]2NCCc3cc(OC)c(OC)cc32)C[C@H]2c3cc(OC)c(OC)cc3CCN2C1`, the survivor count (T/C endpoint: median survival time, dose: 32.0 mg/kg/injection, schedule: Q01DX005 (ip), vehicle: saline, higher T/C = longer survival) was 8 of 10.
`CC1=CCC(C(C)C)C=C1` (stereo not drawn) was tested, and the survivor count (T/C endpoint: median survival time, dose: 25.0 mg/kg/injection, schedule: Q01DX009 (ip), vehicle: Klucel (hydroxypropylcellulose) (HPC), higher T/C = longer survival) was 10 of 10 and the survivor count (T/C endpoint: median survival time, dose: 50.0 mg/kg/injection, schedule: Q01DX009 (ip), vehicle: Klucel (hydroxypropylcellulose) (HPC), higher T/C = longer survival) was 10 of 10.
With `C[C@]12C=CC(=O)C=C1CC[C@@H]1[C@@H]2C(=O)C[C@@]2(C)[C@H]1CC[C@]2(O)C(=O)CO` the T/C (T/C endpoint: median survival time, dose: 50.0 mg/kg/injection, schedule: Q01DX009 (ip), vehicle: saline with Tween-80, higher T/C = longer survival) was 148 % of control, the T/C [4] was 125 % of control and the survivor count [4] was 6 of 6. The T/C (T/C endpoint: median survival time, dose: 100.0 mg/kg/injection, schedule: Q01DX009 (ip), vehicle: Klucel (hydroxypropylcellulose) (HPC), higher T/C = longer survival) was 129 and 139 % of control, the T/C (T/C endpoint: median survival time, dose: 100.0 mg/kg/injection, schedule: Q01DX009 (ip), vehicle: saline with Tween-80, higher T/C = longer survival) was 146 % of control and the T/C [1] was 129 % of control. For the same compound, the survivor count [1] was 6 of 6, the T/C [5] was 149 % of control and the survivor count [5] was 6 of 6. The survivor count [2] was 4 of 6 and 6 of 6, the survivor count (T/C endpoint: median survival time, dose: 400.0 mg/kg/injection, schedule: Q01DX009 (ip), vehicle: Klucel (hydroxypropylcellulose) (HPC), higher T/C = longer survival) was 5 of 6 and 6 of 6 and the survivor count (T/C endpoint: median survival time, dose: 400.0 mg/kg/injection, schedule: Q01DX009 (ip), vehicle: saline with Tween-80, higher T/C = longer survival) was 6 of 6. For the same compound, the survivor count [3] was 6 of 6 and the survivor count (T/C endpoint: median tumor weight (est.), dose: 400.0 mg/kg/injection, schedule: Q01DX009 (ip), vehicle: Klucel (hydroxypropylcellulose) (HPC), higher T/C = larger tumour) was 3 of 6.
